The source of these data is patent publication US12521402B2, “Biomarker and drug combinations for heart failure prediction” (Endothelium Scanning Nanotechnology Limited, priority 2022, dated 2026).

The nature of the series: Saliva proteomics: biomarker quantification by mass spectrometry SWATH in participants at risk of heart failure vs controls. The arrangement: species or system human. The conditions noted are these: for Control vs Risk: differential expression (fold) control vs 'at risk', printed as larger/smaller average whatever the direction; for AtRisk average / Control average: saliva, mass spectrometry SWATH quantification; for AtRisk average: 'at risk' of heart failure group mean; for Control average: control group mean.

B1: LV319 (protein, UniProt P01714 21-112, looked up)
Immunoglobulin lambda …: SELTQDPAVSVALGQTVRITCQGDSLRSYYASWYQQKPGQAPVLVIYGKNNRPSGIPDRFSGSSSGNTASLTITGAQAEDEADYYCNSRDSS
As to B1, the “Control vs Risk” value is 3.12, the AtRisk average is reported as 462,857 ng/ml and the Control average was 1,442,287 ng/ml.

B2: HPRT (protein, UniProt P00492 2-218, looked up)
Hypoxanthine-guanine …: ATRSPGVVISDDEPGYDLDLFCIPNHYAEDLERVFIPHGLIMDRTERLARDVMKEMGGHHIVALCVLKGGYKFFADLLDYIKALNRNSDRSIPMTVDFIRLKSYCNDQSTGDIKVIGGDDLSTLTGKNVLIVEDIIDTGKTMQTLLSLVRQYNPKMVKVASLLVKRTPRSVGYKPDFVGFEIPDKFVVGYALDYNEYFRDLNHVCVISETGKAKYKA
As to B2, the “Control vs Risk” value was 2.74, the AtRisk average is recorded as 118,436 ng/ml and the Control average is 323,998 ng/ml.

B3: PAK2 (protein, UniProt Q13177 2-524, looked up)
Serine/threonine-protein …: SDNGELEDKPPAPPVRMSSTIFSTGGKDPLSANHSLKPLPSVPEEKKPRHKIISIFSGTEKGSKKKEKERPEISPPSDFEHTIHVGFDAVTGEFTGMPEQWARLLQTSNITKLEQKKNPQAVLDVLKFYDSNTVKQKYLSFTPPEKDGFPSGTPALNAKGTEAPAVVTEEEDDDEETAPPVIAPRPDHTKSIYTRSVIDPVPAPVGDSHVDGAAKSLDKQKKKTKMTDEEIMEKLRTIVSIGDPKKKYTRYEKIGQGASGTVFTATDVALGQEVAIKQINLQKQPKKELIINEILVMKELKNPNIVNFLDSYLVGDELFVVMEYLAGGSLTDVVTETCMDEAQIAAVCRECLQALEFLHANQVIHRDIKSDNVLLGMEGSVKLTDFGFCAQITPEQSKRSTMVGTPYWMAPEVVTRKAYGPKVDIWSLGIMAIEMVEGEPPYLNENPLRALYLIATNGTPELQNPEKLSPIFRDFLNRCLEMDVEKRGSAKELLQHPFLKLAKPLSSLTPLIMAAKEAMKSNR
As to B3, the “Control vs Risk” value worked out at 3.09, the AtRisk average is listed as 47,302 ng/ml and the Control average is on record as 146,112 ng/ml.

B4: PLCG2 (protein, UniProt P16885 1-1265, looked up)
1-phosphatidylinositol …: MSTTVNVDSLAEYEKSQIKRALELGTVMTVFSFRKSTPERRTVQVIMETRQVAWSKTADKIEGFLDIMEIKEIRPGKNSKDFERAKAVRQKEDCCFTILYGTQFVLSTLSLAADSKEDAVNWLSGLKILHQEAMNASTPTIIESWLRKQIYSVDQTRRNSISLRELKTILPLINFKVSSAKFLKDKFVEIGAHKDELSFEQFHLFYKKLMFEQQKSILDEFKKDSSVFILGNTDRPDASAVYLHDFQRFLIHEQQEHWAQDLNKVRERMTKFIDDTMRETAEPFLFVDEFLTYLFSRENSIWDEKYDAVDMQDMNNPLSHYWISSSHNTYLTGDQLRSESSPEAYIRCLRMGCRCIELDCWDGPDGKPVIYHGWTRTTKIKFDDVVQAIKDHAFVTSSFPVILSIEEHCSVEQQRHMAKAFKEVFGDLLLTKPTEASADQLPSPSQLREKIIIKHKKLGPRGDVDVNMEDKKDEHKQQGELYMWDSIDQKWTRHYCAIADAKLSFSDDIEQTMEEEVPQDIPPTELHFGEKWFHKKVEKRTSAEKLLQEYCMETGGKDGTFLVRESETFPNDYTLSFWRSGRVQHCRIRSTMEGGTLKYYLTDNLTFSSIYALIQHYRETHLRCAEFELRLTDPVPNPNPHESKPWYYDSLSRGEAEDMLMRIPRDGAFLIRKREGSDSYAITFRARGKVKHCRINRDGRHFVLGTSAYFESLVELVSYYEKHSLYRKMRLRYPVTPELLERYNMERDINSLYDVSRMYVDPSEINPSMPQRTVKALYDYKAKRSDELSFCRGALIHNVSKEPGGWWKGDYGTRIQQYFPSNYVEDISTADFEELEKQIIEDNPLGSLCRGILDLNTYNVVKAPQGKNQKSFVFILEPKQQGDPPVEFATDRVEELFEWFQSIREITWKIDTKENNMKYWEKNQSIAIELSDLVVYCKPTSKTKDNLENPDFREIRSFVETKADSIIRQKPVDLLKYNQKGLTRVYPKGQRVDSSNYDPFRLWLCGSQMVALNFQTADKYMQMNHALFSLNGRTGYVLQPESMRTEKYDPMPPESQRKILMTLTVKVLGARHLPKLGRSIACPFVEVEICGAEYDNNKFKTTVVNDNGLSPIWAPTQEKVTFEIYDPNLAFLRFVVYEEDMFSDPNFLAHATYPIKAVKSGFRSVPLKNGYSEDIELASLLVFCEMRPVLESEEELYSSCRQLRRRQEELNNQLFLYDTHQNLRNANRDALVKEFSVNENQLQLYQEKCNKRLREKRVSNSKFYS
As to B4, the “Control vs Risk” value is 3.20, the AtRisk average was 171,703 ng/ml and the Control average is 53,680 ng/ml.

B5: ABCB9 (protein, UniProt Q9NP78 1-766, looked up)
ABC-type oligopeptide …: MRLWKAVVVTLAFMSVDICVTTAIYVFSHLDRSLLEDIRHFNIFDSVLDLWAACLYRSCLLLGATIGVAKNSALGPRRLRASWLVITLVCLFVGIYAMVKLLLFSEVRRPIRDPWFWALFVWTYISLGASFLLWWLLSTVRPGTQALEPGAATEAEGFPGSGRPPPEQASGATLQKLLSYTKPDVAFLVAASFFLIVAALGETFLPYYTGRAIDGIVIQKSMDQFSTAVVIVCLLAIGSSFAAGIRGGIFTLIFARLNIRLRNCLFRSLVSQETSFFDENRTGDLISRLTSDTTMVSDLVSQNINVFLRNTVKVTGVVVFMFSLSWQLSLVTFMGFPIIMMVSNIYGKYYKRLSKEVQNALARASNTAEETISAMKTVRSFANEEEEAEVYLRKLQQVYKLNRKEAAAYMYYVWGSGLTLLVVQVSILYYGGHLVISGQMTSGNLIAFIIYEFVLGDCMESVGSVYSGLMQGVGAAEKVFEFIDRQPTMVHDGSLAPDHLEGRVDFENVTFTYRTRPHTQVLQNVSFSLSPGKVTALVGPSGSGKSSCVNILENFYPLEGGRVLLDGKPISAYDHKYLHRVISLVSQEPVLFARSITDNISYGLPTVPFEMVVEAAQKANAHGFIMELQDGYSTETGEKGAQLSGGQKQRVAMARALVRNPPVLILDEATSALDAESEYLIQQAIHGNLQKHTVLIIAHRLSTVEHAHLIVVLDKGRVVQQGTHQQLLAQGGLYAKLVQRQMLGLQPAADFTAGHNEPVANGSHKA
Turning to B5, the “Control vs Risk” value was determined as 11.14, the AtRisk average was 2,886,652 ng/ml and the Control average is recorded as 259,205 ng/ml.

B6: S10AG (protein, UniProt Q96FQ6 1-103, looked up)
Protein S100-A16: MSDCYTELEKAVIVLVENFYKYVSKYSLVKNKISKSSFREMLQKELNHMLSDTGNRKAADKLIQNLDANHDGRISFDEYWTLIGGITGPIAKLIHEQEQQSSS
Turning to B6, the “Control vs Risk” value is listed as 3.18, the AtRisk average is on record as 203,832 ng/ml and the Control average is given as 648,580 ng/ml.

B7: CRIS3 (protein, UniProt P54108 21-245, looked up)
Cysteine-rich secretory …: NEDKDPAFTALLTTQTQVQREIVNKHNELRRAVSPPARNMLKMEWNKEAAANAQKWANQCNYRHSNPKDRMTSLKCGENLYMSSASSSWSQAIQSWFDEYNDFDFGVGPKTPNAVVGHYTQVVWYSSYLVGCGNAYCPNQKVLKYYYVCQYCPAGNWANRLYVPYEQGAPCASCPDNCDDGLCTNGCKYEDLYSNCKSLKLTLTCKHQLVRDSCKASCNCSNSIY
On to B7, for which the “Control vs Risk” value came to 2.74, the AtRisk average is reported as 13,156,769 ng/ml and the Control average is 35,993,306 ng/ml.

B8: SRSF8 (protein, UniProt Q9BRL6 2-282, looked up)
Serine/arginine-rich splicing …: SCGRPPPDVDGMITLKVDNLTYRTSPDSLRRVFEKYGRVGDVYIPREPHTKAPRGFAFVRFHDRRDAQDAEAAMDGAELDGRELRVQVARYGRRDLPRSRQGEPRGRSRGGGYGRRSRSYGRRSRSPRRRHRSRSRGPSCSRSRSRSRYRGSRYSRSPYSRSPYSRSRYSRSPYSRSRYRESRYGGSHYSSSGYSNSRYSRYHSSRSHSKSGSSTSSRSASTSKSSSARRSKSSSVSRSRSRSRSSSMTRSPPRVSKRKSKSRSRSKRPPKSPEEEGQMSS
Regarding B8, the “Control vs Risk” value is listed as 2.75, the AtRisk average is reported as 141,319 ng/ml and the Control average was 51,306 ng/ml.
